The supplement of paper PMC12067093, “Discovery and optimisation of a covalent ligand for TRIM25 and its application to targeted protein ubiquitination” (Chemical Science, 2025)
The list shows a part of the results.

Chains of the proteins cited; added tags and fusions are not shown. Lines headed by an entry give the natural chain unless they say otherwise; changes in a name come on top.
UniProt Q92619: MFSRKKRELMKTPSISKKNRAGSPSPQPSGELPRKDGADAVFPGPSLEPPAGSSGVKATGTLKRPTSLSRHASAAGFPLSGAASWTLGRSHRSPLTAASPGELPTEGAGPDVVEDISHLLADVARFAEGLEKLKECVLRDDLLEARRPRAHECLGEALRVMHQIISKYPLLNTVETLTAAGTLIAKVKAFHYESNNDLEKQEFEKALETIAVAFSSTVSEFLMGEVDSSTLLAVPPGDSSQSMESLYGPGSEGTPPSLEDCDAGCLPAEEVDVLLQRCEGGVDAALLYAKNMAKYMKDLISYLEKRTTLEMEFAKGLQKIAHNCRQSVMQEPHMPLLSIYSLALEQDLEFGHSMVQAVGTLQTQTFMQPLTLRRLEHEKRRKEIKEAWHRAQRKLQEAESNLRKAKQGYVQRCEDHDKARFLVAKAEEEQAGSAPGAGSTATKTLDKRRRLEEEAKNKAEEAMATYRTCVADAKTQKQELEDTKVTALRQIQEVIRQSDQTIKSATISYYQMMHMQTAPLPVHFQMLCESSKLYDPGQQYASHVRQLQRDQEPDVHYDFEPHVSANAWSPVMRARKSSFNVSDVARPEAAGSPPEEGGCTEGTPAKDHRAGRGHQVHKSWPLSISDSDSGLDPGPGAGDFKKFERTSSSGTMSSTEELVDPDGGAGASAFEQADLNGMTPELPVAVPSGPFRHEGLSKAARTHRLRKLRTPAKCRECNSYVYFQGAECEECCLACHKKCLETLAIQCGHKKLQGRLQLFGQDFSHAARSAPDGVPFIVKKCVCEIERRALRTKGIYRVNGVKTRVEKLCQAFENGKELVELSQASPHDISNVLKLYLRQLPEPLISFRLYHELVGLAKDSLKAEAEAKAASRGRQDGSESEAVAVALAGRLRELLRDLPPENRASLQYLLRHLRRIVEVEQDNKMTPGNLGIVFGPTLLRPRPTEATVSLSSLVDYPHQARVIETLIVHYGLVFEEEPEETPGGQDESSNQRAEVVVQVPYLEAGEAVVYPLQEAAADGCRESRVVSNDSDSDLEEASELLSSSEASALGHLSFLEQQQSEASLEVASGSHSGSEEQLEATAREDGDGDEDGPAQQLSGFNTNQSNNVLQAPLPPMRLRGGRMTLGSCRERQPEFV
UniProt Q9UKG1: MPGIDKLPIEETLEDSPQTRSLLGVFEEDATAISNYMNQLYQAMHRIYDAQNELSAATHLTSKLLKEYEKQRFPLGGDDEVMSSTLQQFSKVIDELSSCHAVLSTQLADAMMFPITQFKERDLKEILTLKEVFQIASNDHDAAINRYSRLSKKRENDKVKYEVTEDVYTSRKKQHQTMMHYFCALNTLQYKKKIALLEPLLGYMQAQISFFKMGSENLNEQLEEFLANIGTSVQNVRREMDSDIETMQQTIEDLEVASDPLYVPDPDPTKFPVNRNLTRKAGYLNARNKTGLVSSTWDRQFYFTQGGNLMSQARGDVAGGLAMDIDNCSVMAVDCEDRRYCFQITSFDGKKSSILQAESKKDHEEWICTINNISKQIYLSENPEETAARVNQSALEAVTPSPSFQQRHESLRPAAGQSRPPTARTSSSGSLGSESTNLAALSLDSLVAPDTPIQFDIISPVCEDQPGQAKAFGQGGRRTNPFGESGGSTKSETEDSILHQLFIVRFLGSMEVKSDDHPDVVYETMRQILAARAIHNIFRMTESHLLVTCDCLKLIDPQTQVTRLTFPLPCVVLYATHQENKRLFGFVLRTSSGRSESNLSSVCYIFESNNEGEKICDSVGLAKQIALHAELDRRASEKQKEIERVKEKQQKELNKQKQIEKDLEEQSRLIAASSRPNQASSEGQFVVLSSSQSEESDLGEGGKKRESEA
UniProt Q9H993: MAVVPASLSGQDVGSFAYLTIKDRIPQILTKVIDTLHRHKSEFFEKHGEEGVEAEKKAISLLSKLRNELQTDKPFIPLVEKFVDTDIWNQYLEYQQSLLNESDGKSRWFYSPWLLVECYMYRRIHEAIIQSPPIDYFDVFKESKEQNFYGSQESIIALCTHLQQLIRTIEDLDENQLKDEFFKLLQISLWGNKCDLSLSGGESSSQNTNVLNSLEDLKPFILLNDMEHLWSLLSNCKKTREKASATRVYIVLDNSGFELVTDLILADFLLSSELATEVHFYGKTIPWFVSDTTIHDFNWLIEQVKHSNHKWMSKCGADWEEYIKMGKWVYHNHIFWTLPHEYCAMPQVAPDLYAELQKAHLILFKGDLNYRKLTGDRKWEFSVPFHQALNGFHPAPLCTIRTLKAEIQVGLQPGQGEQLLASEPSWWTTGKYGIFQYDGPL
UniProt O95376: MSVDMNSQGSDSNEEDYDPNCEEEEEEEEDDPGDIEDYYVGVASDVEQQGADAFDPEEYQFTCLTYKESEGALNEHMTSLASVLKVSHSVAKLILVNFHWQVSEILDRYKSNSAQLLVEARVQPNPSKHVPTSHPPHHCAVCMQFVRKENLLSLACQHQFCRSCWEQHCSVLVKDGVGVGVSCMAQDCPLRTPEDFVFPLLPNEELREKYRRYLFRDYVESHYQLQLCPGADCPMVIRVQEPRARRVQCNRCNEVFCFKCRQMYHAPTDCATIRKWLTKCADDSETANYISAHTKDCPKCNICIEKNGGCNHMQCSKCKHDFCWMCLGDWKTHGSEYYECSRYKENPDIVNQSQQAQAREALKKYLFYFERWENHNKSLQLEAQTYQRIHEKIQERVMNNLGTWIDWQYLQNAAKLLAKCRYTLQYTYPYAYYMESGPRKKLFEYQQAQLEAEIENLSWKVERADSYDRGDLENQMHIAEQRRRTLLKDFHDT
UniProt Q92888: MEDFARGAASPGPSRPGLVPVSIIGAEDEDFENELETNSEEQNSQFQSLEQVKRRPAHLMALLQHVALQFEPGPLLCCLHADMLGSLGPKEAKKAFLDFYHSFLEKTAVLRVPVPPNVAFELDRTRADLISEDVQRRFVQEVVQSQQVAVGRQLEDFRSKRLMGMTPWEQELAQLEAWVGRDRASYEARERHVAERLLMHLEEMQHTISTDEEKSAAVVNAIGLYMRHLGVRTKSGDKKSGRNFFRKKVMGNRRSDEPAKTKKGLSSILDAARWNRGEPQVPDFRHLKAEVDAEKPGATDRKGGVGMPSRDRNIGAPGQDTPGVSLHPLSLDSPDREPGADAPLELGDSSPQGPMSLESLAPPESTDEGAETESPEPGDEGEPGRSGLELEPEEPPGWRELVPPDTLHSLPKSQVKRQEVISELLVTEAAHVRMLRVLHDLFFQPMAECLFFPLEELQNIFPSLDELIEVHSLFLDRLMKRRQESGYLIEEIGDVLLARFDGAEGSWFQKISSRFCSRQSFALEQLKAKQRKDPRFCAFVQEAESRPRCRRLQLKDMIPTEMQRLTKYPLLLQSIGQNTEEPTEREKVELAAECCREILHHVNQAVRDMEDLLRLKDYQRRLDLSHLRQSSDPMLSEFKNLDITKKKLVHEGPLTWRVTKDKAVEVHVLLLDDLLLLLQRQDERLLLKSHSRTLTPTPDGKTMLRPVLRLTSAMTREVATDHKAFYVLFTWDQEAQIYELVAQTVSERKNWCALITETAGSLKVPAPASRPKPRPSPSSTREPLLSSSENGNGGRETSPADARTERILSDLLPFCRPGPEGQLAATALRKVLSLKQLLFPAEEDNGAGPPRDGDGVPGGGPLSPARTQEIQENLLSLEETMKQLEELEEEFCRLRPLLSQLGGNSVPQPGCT
UniProt Q9Y4X5: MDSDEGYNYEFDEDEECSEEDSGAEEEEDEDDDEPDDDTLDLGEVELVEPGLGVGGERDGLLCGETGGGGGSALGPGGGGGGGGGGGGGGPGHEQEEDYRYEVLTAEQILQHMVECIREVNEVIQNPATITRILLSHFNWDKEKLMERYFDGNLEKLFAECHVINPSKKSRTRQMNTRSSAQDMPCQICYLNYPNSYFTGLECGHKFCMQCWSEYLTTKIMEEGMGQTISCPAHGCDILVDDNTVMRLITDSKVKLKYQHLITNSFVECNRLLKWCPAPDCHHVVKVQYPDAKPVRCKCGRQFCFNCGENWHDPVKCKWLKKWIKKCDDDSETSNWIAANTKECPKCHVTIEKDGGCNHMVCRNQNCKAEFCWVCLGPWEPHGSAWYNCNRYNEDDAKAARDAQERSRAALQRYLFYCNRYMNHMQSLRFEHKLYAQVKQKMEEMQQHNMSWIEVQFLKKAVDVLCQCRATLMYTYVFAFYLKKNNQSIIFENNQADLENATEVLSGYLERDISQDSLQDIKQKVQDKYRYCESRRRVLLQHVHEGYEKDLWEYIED
UniProt Q8NFD5, whole entry, looked up: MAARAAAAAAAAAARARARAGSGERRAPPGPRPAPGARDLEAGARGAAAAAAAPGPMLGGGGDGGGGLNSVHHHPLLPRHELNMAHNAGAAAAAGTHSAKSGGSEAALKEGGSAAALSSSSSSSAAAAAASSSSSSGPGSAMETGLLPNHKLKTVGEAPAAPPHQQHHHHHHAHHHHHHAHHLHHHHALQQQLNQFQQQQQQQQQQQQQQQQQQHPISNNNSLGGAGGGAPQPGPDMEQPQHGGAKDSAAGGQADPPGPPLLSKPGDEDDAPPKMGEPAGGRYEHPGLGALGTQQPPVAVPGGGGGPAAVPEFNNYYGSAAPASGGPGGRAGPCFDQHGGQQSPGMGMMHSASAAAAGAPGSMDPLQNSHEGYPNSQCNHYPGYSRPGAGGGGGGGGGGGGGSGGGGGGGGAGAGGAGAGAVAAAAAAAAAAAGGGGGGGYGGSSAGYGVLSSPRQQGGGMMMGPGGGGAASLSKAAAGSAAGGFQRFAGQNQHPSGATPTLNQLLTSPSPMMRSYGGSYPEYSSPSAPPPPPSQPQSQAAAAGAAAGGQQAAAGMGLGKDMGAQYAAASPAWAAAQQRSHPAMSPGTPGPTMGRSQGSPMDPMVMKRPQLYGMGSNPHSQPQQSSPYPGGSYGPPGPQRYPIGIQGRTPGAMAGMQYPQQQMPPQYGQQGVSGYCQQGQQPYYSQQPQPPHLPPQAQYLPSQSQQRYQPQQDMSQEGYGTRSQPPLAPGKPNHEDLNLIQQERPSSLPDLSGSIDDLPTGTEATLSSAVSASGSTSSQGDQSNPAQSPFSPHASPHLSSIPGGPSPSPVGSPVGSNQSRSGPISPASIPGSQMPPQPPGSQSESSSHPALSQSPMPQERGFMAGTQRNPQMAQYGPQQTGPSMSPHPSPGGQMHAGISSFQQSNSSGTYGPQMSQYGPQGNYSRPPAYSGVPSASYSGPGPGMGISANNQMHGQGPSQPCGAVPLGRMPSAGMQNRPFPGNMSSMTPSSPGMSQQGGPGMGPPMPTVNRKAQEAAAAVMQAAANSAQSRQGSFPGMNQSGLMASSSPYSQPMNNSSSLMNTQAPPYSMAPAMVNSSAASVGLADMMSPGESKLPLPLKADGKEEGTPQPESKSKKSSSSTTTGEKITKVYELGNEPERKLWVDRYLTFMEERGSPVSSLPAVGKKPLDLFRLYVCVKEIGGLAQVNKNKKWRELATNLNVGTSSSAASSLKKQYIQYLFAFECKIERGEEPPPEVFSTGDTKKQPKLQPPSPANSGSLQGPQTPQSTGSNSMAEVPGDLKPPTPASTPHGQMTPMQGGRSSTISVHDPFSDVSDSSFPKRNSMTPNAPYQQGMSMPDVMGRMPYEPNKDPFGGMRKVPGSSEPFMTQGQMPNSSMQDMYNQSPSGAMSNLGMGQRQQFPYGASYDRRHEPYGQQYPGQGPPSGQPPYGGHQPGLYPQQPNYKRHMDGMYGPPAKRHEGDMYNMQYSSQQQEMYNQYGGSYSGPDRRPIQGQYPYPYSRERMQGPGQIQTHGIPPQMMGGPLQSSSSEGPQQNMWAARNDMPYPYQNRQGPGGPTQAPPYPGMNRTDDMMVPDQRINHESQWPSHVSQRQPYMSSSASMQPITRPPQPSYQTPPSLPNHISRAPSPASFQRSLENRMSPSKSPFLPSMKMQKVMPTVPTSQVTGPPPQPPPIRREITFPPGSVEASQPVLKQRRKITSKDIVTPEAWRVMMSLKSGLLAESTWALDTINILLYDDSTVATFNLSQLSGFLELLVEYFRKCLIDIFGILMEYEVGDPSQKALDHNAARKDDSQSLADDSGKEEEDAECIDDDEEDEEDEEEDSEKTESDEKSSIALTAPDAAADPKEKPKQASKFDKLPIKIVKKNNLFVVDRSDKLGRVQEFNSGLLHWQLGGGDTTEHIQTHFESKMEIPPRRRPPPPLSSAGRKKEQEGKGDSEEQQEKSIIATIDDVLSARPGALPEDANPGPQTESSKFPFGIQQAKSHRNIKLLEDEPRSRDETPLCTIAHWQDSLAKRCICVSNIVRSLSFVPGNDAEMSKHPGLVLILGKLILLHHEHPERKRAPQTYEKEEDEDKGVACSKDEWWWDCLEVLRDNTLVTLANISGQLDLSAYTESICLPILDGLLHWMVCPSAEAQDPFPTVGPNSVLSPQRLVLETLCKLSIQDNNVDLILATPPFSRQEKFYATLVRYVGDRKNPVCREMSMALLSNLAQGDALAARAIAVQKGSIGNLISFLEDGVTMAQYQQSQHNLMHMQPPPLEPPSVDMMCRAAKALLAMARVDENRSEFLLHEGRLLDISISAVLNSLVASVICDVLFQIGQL

Compound: CC1Cc2ccccc2N1C(=O)C1CCCN(C1)C(=O)CCl (mixture of isomers) [TRIM25 ligand 11 (diastereomer mixture)]
Test: probe-labelled cysteine peptide fold change vs DMSO (competition) (log2 fold change); higher = less target engagement (more negative = stronger competition)
Conditions: THP-1, incubation time: 4 h
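Also: competitive chemoproteomic profiling in live THP-1 cells with an iodoacetamide desthiobiotin (IA-DTB) probe, comparing probe-labelled peptide intensities in compound-treated cells against DMSO-treated controls.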

Target | probe-labelled cysteine peptide fold change (10 µM) | probe-labelled cysteine peptide fold change (50 µM)
ARHGEF2_Q92974_715_TFNGSIELCR (UniProt Q92974) | -0.0939 | -0.117
ARHGAP45_Q92619_153_AHECLGEALR (UniProt Q92619) | -0.0548 | -0.15
APOBR_Q0VD83_844_VEAEESAGAEDSCGLDPAGSQTAR (UniProt Q0VD83) | -0.144 | -0.0476
APTX_Q7Z2E3_286_LGYHAIPSMSHVHLHVISQDFDSPCLK (UniProt Q7Z2E3) | 0.213 | -0.0807
APRT_P07741_83_GFLFGPSLAQELGLGCVLIRK (UniProt P07741) | -0.359 | -0.22
APTX_Q7Z2E3_161_DAAQEAEAGTGLEPGSNSGQCSVPLK (UniProt Q7Z2E3) | 0.282 | -0.342
ARL2_P36404_102_MQDCQR (UniProt P36404) | 0.0325 | -0.0232
APPL1_Q9UKG1_368_KDHEEWICTINNISK (UniProt Q9UKG1) | -0.0696 | -0.109
ARHGEF6_Q15052_66_FCLDPQTEADCINNINDFLK (UniProt Q15052) | 0.119 | -0.105
ARHGAP30_Q7Z6I6_449_GLECPALQHRPSPASGPGPGPGLGPGPPDEK (UniProt Q7Z6I6) | 0.0307 | -0.316
ARHGEF2_Q92974_68_EALICPTCNVTIHNR (UniProt Q92974) | 0.0449 | -0.0699
ARHGEF2_Q92974_383_RHGVQECILLVTQR (UniProt Q92974) | 0.0772 | 0.254
ARMT1_Q9H993_159_EQNFYGSQESIIALCTHLQQLIR (UniProt Q9H993) | 0.176 | 0.292
APP_P05067_158_ETCSEK (UniProt P05067) | 0.0161 | 0.0395
ARID2_Q68CP9_1271_KIEVMENPSCR (UniProt Q68CP9) | -0.128 | -0.356
ARNT_P27540_400_NIVEFCHPEDQQLLR (UniProt P27540) | 0.207 | 0.149
ARHGEF6_Q15052_763_QTDECIR (UniProt Q15052) | -0.00871 | 0.0709
ARHGEF6_Q15052_182_QTNEDELSVCK (UniProt Q15052) | -0.0147 | -0.0327
APPL1_Q9UKG1_328_GDVAGGLAMDIDNCSVMAVDCEDRR (UniProt Q9UKG1) | -0.254 | -0.395
ARHGEF17_Q96PE2_1439_LELCATRPEGTDSYIFEFPHPDAR (UniProt Q96PE2) | -0.0635 | 0.121
ARHGEF7_Q14155_349_VGGCFLNLMPQMK (UniProt Q14155) | 0.333 | 0.184

Target | probe-labelled cysteine peptide fold change (10 µM) | probe-labelled cysteine peptide fold change (50 µM)
ARHGAP30_Q7Z6I6_965_IHVAPANPCPR (UniProt Q7Z6I6) | 0.0712 | -0.00183
ARL6IP4_Q66PJ3-3_220_NCSASTSQER (UniProt Q66PJ3) | -0.0967 | -0.0385
APOBEC3G_Q9HC16_356_HCWDTFVDHQGCPFQPWDGLDEHSQDLSGR (UniProt Q9HC16) | 0.0156 | 0.121
ARFRP1_Q13795_19_DEYCILILGLDNAGK (UniProt Q13795) | -0.000377 | 0.223
ARID1A_O14497_1827_NDPFVVDCSDK (UniProt O14497) | 0.000311 | -0.0989
ARMH3_Q5T2E6_105_VVNALQTLCALIR (UniProt Q5T2E6) | 0.188 | 0.437
ARMCX3_Q9UH62_52_MAEGGSGDVDDAGDCSGAR (UniProt Q9UH62) | -0.248 | -0.267
ARHGEF10_O15013_808+809_AADCCR (UniProt O15013) | 0.0459 | 0.0127
ARHGAP19_Q14CB8_359_VDSCPHQEETQHHTEEALR (UniProt Q14CB8) | 0.122 | 0.0883
AQR_O60306_997_SYEEDMEIAEGCFR (UniProt O60306) | 0.258 | 0.218
ARHGAP9_Q9BRR9_666_AALALSESEQCLSQIQELIGSMPKPNHDTLR (UniProt Q9BRR9) | -0.245 | -0.323
ARHGAP25_P42331_292_DNYSLLSYICR (UniProt P42331) | 0.00187 | -0.0581
ARHGAP35_Q9NRY4_663_LPVNSFQTPTFQPHGCLCLYNSK (UniProt Q9NRY4) | 0.0228 | 0.0815
ARIH2_O95376_326_HDFCWMCLGDWK (UniProt O95376) | -0.0551 | -0.112
ARHGEF1_Q92888_595_VELAAECCR (UniProt Q92888) | -0.0599 | 0.149
ARHGEF6_Q15052_738_QCLEEELK (UniProt Q15052) | -0.0932 | 0.125
ARHGAP26_Q9UNA1_11+12_GLPALEFSDCCLDSPHFR (UniProt Q9UNA1) | 0.341 | 0.048
ARHGEF6_Q15052_564_TSSSSCSAHSSFSSTGQPR (UniProt Q15052) | 0.336 | -0.439
ARHGEF6_Q15052_319_VGGCLLSLMPHFK (UniProt Q15052) | -0.288 | -0.0828
ARHGEF40_Q8TER5_1148_ELQGCATHPLR (UniProt Q8TER5) | 0.126 | 0.0937
ARIH1_Q9Y4X5_327_KCDDDSETSNWIAANTK (UniProt Q9Y4X5) | -0.0217 | 0.0403

Target | probe-labelled cysteine peptide fold change (10 µM) | probe-labelled cysteine peptide fold change (50 µM)
ARMC5_Q96C12_273_ACAEQLSLGGGLGPLVSLASHPK (UniProt Q96C12) | -0.155 | 0.0269
ARIH2_O95376_188_DGVGVGVSCMAQDCPLR (UniProt O95376) | -0.0824 | -0.0406
ARIH1_Q9Y4X5_362_DGGCNHMVCR (UniProt Q9Y4X5) | -0.0147 | -0.0438
AQR_O60306_28_IVAPTVSQINAEFVTQLACK (UniProt O60306) | 0.0381 | 0.0549
ARHGEF1_Q92888_815_ILSDLLPFCRPGPEGQLAATALRK (UniProt Q92888) | -0.326 | -0.307
ARHGEF1_Q92888_815_ILSDLLPFCR (UniProt Q92888) | 0.0201 | -0.139
ARHGAP18_Q8N392_323_DSGLFCVPLTALLEQDQR (UniProt Q8N392) | -0.155 | -0.199
ARHGEF6_Q15052_57+66_FCLDPQTEADCINNINDFLK (UniProt Q15052) | -0.188 | 0.0488
ARHGEF10_O15013_477_EILQCHSLFQIALASR (UniProt O15013) | 0.08 | 0.249
APRT_P07741_153_LQAEVLECVSLVELTSLK (UniProt P07741) | -0.00596 | 0.0782
ARHGAP45_Q92619_809_LCQAFENGK (UniProt Q92619) | -0.0731 | 0.0183
ARHGEF18_Q6ZSZ5_494_LFPCADDLLETHSHFLAR (UniProt Q6ZSZ5) | 0.035 | -0.127
APOBR_Q0VD83_895_CGDYHPEGEAPR (UniProt Q0VD83) | 0.0339 | -0.0535
AQR_O60306_681_NLMNTDCVVPDWLHDIILGYGDPSSAHYSK (UniProt O60306) | 0.236 | 0.0307
ARL6_Q9H0F7_148_VSQLLCLENIK (UniProt Q9H0F7) | -0.042 | 0.0128
ARHGEF40_Q8TER5_1262_GCEIDLK (UniProt Q8TER5) | 0.0307 | 0.0923
ARMT1_Q9H993_398_WEFSVPFHQALNGFHPAPLCTIR (UniProt Q9H993) | -0.325 | -0.0825
ARID4A_P29374_356_LVYHQGGCDNIDSGAVWK (UniProt P29374) | -0.107 | -0.0505
ARID1B_Q8NFD5_1093_LYVCVK (UniProt Q8NFD5) | 0.0565 | 0.149
ARHGEF2_Q92974_306_QALCPGSTR (UniProt Q92974) | 0.0543 | 0.045
AQR_O60306_1039_IIAMTCTHAALK (UniProt O60306) | 0.0155 | 0.175

Target | probe-labelled cysteine peptide fold change (10 µM) | probe-labelled cysteine peptide fold change (50 µM)
AQR_O60306_250_VHYCER (UniProt O60306) | 0.113 | 0.175
ARIH1_Q9Y4X5_357_DGGCNHMVCR (UniProt Q9Y4X5) | -0.0941 | -0.0997
ARMC8_Q8IUR7_168_YTQEYICQIFSHCCK (UniProt Q8IUR7) | 0.0343 | 0.117
ARL6_Q9H0F7_22_EVHVLCLGLDNSGK (UniProt Q9H0F7) | -0.061 | 0.0744
ARHGAP4_P98171_569_VSEIRDAFERGEDPLVEGCTAHDLDSVAGVLK (UniProt P98171) | -0.213 | -0.101
ARMC8_Q8IUR7_3_ACLLETPIR (UniProt Q8IUR7) | 0.121 | -0.179
ARMC6_Q6NXE6_297_AFLDNPGILSELCGTLSR (UniProt Q6NXE6) | -0.0364 | -0.145
ARHGEF2_Q92974_86_DTLANCTK (UniProt Q92974) | -0.0833 | -0.0694
ARHGAP35_Q9NRY4_89_SLEDCVECK (UniProt Q9NRY4) | 0.12 | 0.0982
ARIH2_O95376_340_THGSEYYECSR (UniProt O95376) | 0.223 | -0.0532
ARHGEF2_Q92974_68+71_EALICPTCNVTIHNR (UniProt Q92974) | 0.202 | -0.0187
ARCN1_P48444_441_NTLEWCLPVIDAK (UniProt P48444) | -0.159 | -0.0281
APOBR_Q0VD83_149_AGSGACQDR (UniProt Q0VD83) | -0.136 | -0.202
ARAP1_Q96P48_774_RWCVLGDGVLSYFENER (UniProt Q96P48) | -0.154 | 0.0578
APPL1_Q9UKG1_183_QHQTMMHYFCALNTLQYK (UniProt Q9UKG1) | 0.117 | -0.139
ARL5A_Q9Y689_132_ECMTVAEISQFLK (UniProt Q9Y689) | 0.142 | 0.173
ARAP1_Q96P48_995_KCGQTSK (UniProt Q96P48) | -0.225 | -0.37
ARID1B_Q8NFD5_2074_LVLETLCK (UniProt Q8NFD5) | -0.204 | 0.341
APOBEC3G_Q9HC16_243_GFLCNQAPHK (UniProt Q9HC16) | 0.0831 | 0.0911
ARID2_Q68CP9_1271_IEVMENPSCR (UniProt Q68CP9) | 0.107 | -0.219
APPL2_Q8NEU8_606_ICYAINLGK (UniProt Q8NEU8) | 0.195 | 0.246
